Assay results published in patent US20050020519A1, “Modulation of insulin-regulated aminopeptidase (irap)/angiotensin iv (at4) receptor activity” (priority 2001, published 2005).
For some assays here: Part of at least one peptide drawing is inferred or uncertain, most often the ends. Some of these results come from one statement about several compounds together. Where a SMILES comes first, the peptide text is derived from it. Where no end group is shown, it is not given here.

Chains of the proteins cited; added tags and fusions are not shown.
UniProt Q9UIQ6, whole entry: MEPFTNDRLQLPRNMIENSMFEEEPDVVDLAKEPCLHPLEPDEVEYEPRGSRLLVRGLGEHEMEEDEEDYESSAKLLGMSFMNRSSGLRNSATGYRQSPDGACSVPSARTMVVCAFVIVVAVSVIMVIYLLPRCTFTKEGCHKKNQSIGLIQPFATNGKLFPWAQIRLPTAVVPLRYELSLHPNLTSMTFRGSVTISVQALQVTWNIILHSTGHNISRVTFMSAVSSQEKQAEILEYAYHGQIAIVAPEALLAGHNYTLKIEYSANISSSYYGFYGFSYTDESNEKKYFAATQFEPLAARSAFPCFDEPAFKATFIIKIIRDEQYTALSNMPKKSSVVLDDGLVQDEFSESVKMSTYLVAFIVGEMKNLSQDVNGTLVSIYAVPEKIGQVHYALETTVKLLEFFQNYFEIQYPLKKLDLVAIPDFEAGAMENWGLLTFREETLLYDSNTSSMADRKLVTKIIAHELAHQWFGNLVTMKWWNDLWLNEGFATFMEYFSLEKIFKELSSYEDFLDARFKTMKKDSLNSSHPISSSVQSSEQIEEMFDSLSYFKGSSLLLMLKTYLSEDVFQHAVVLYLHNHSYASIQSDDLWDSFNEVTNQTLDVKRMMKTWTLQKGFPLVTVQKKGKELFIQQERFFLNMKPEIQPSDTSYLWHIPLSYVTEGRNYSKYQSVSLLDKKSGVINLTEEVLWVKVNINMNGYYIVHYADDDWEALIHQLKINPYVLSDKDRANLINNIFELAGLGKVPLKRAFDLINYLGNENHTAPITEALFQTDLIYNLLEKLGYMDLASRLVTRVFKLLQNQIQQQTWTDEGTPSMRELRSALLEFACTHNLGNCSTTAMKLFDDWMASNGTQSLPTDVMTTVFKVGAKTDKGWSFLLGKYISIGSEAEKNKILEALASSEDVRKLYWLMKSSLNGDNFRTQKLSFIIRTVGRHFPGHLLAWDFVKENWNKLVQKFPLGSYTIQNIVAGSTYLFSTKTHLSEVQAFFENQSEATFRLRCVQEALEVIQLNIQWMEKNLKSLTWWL

Legend:
Sprague-Dawley rats = assay: Barnes Circular Maze, normal rats; type: in vivo, rat; details: single icv dose, 100 pM or 1 nM, 5 min before first trial; control 7 days
IRAP (AT4 receptor) = target: T1, IRAP (AT4 receptor) (Homo sapiens, UniProt Q9UIQ6); assay: ^125I-Nle^1 Ang IV binding to membranes of HEK 293 cells transfected with IRAP cDNA
T1 construct: expressed in transfected cells; host or cells: HEK 293 cells (membranes)
Source text: The amount of radioligand bound to the membranes from HEK 293 cells transfected with IRAP cDNA was expressed as a percentage of radioligand bound to membranes from HEK 293 cells transfected with control plasmids.

Row | Compound | days to achieve learner criteria (Sprague-Dawley rats) | binding of ^125I-Nle^1 angiotensin IV to IRAP sites inhibited by ligand (IRAP (AT4 receptor))
1 | CCCC[C@H](N)C(=O)N[C@@H](Cc1ccc(O)cc1)C(=O)N[C@H](C(=O)N[C@@H](Cc1c[nH]cn1)C(=O)N1CCC[C@H]1C(=O)N[C@@H](Cc1ccccc1)C(=O)O)[C@@H](C)CC [Nle^1-Ang IV, Nle′-YIHPF] (HELM PEPTIDE1{[Nle].Y.I.H.P.F}$$$$V2.0; N-terminus and C-terminus assumed) | 3 to 4 days | –
2 | KYLPGPLQ | – | competitively inhibited
